Experimental data taken from patent US12559525B2 (priority 2021, dated 2026).

Assay: general procedure: Fmoc solid-phase peptide synthesis
Settings: conjugation step

C(Mal-Cy5)-GGG-QVTTGSNLVEFTEESLGIVTGAVSDHTTVEDT
final HPLC purity: >95%
